Values of other authors as cited in patent publication US20150037351A1, “NOVEL THERAPEUTIC TARGET FOR THE PREVENTION OF TUMOUR METASTASIS” (MAX-PLANCK-GESELLSCHAFT ZUR FORDERUNG DER WISSENSCHAFTEN …, priority 2012, published 2015).
At least one compound was matched to its structure with a doubt left.

Protein sequences, listed by entry. Tags and fused reporters are not part of them. Lines headed by an entry give the natural chain unless they say otherwise; changes in a name come on top.
UniProt P41231: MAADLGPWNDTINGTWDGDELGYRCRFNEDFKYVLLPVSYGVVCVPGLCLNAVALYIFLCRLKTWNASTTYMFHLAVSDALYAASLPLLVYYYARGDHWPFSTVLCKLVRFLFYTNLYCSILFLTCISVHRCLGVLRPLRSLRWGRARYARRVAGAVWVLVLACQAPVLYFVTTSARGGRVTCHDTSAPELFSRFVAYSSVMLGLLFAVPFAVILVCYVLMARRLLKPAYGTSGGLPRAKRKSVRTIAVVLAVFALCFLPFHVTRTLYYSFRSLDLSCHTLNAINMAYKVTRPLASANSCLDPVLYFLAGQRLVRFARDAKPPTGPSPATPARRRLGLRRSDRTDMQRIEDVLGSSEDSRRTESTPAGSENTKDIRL

Molecular target: P2Y2 receptors (Homo sapiens, UniProt P41231)
Details: natural ligands of the human P2Y2 receptor; cited from earlier work

O=c1ccn([C@@H]2O[C@H](COP(=O)(O)OP(=O)(O)OP(=O)(O)O)[C@@H](O)[C@H]2O)c(=O)[nH]1 [UTP]
EC50: 10^−8.1
